# Among all 73,000 compounds or so, about 350 (0.48%) were called active. Roughly 17% stayed inconclusive and do not appear here. The call rests on the fitted dose curve; in most records, active means well fitted activation curve with a large enough effect in the main read-out, with a control signal flat (not every such curve was filed as active); inconclusive means small, poorly fitted or top-dose-only effect, or a change in a side signal; inactive means no such curve, though single readings can be large or run the other way; % of control where 0% means no effect. This is a selection; strong and weak results do not stand in their true shares. Where no call is shown, the source filed none.
# Protein sequences, listed by entry. Tags and fused reporters are not part of them.
# UniProt P16473, whole entry, looked up: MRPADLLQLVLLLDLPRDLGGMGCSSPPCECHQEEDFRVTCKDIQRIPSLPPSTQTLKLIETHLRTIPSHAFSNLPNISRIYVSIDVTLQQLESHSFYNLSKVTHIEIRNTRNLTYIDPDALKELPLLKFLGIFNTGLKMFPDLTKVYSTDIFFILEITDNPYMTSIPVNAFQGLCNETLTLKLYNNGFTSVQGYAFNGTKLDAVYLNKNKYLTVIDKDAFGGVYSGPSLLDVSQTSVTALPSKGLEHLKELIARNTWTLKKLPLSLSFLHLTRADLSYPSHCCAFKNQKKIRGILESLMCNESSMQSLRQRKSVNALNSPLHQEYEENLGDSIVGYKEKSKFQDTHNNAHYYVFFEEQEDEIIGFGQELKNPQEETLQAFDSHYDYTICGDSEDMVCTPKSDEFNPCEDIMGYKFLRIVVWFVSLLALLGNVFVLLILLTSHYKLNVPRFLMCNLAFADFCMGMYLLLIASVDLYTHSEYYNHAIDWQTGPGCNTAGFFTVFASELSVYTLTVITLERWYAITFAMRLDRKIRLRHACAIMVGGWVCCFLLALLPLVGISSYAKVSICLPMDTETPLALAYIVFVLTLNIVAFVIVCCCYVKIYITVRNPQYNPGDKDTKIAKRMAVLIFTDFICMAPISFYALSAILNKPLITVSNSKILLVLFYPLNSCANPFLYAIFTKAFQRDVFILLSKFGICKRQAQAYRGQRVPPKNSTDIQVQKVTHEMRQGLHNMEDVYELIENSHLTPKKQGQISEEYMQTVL
# Biological target: Thyrotropin receptor (Homo sapiens) (UniProt P16473)
# Experiment: qHTS Assay for Agonists of the Thyroid Stimulating Hormone Receptor;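 further: the control signal comes from parental cells without the receptor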
# Conditions: HEK293-CNG-TSHR cells (CNG channel as cAMP sensor), membrane potential dye, cAMP; at 11.4 µM (top of the series) unless noted
# From the text: NIH Chemical Genomics Center [NCGC]
# NIH Molecular Libraries Screening Centers Network [MLSCN]
# PI Name: Dr. Marvin Gershengorn, NIH
# Thyroid Stimulating Hormone Receptor
# TSH is an alpha/beta heterodimeric glycoprotein hormone secreted from the anterior pituitary gland which belongs to the glycoprotein hormone family. The actions of TSH are mediated by a seven-transmembrane receptor, which upon TSH binding couples preferentially to the G-alpha (s) protein (Gs), resulting in activation of adenylate cyclase and increase in cyclic adenosine 3', 5' monophosphate (cAMP). The TSH receptor (THSR) is mainly expressed in thyroid follicular cells and regulates their growth and function. Recombinant TSH is used to activate TSHR in patients with thyroid cancer receiving thyroid hormone suppression therapy and to screen for residual tumor after surgery, but it is expensive and must be administered intramuscularly. An orally active small molecule TSHR agonist would serve as an invaluable research tool for studying TSHR pharmacology and physiology, and would have multiple advantages in therapeutic settings. However, no selective small molecule agonist of the TSH receptor exists, and no small molecule screen for TSHR agonists has ever been reported.
# This cell based assay utilized a cyclic nucleotide gated ion channel (CNG) as a biosensor for cAMP induction by potential TSHR agonists.
# HEK 293 cells stably expressing the TSHR as well as a modified CNG were purchased from BD biosciences. Stimulation of cAMP production causes the CNG to open and subsequent membrane depolarization to occur. […]
# High Throughput Screening. […] 23 nl/well compound or control was then added to the assay plates, which were incubated for additional 30 min before reading a Envision fluorescence plate reader (Perkin Elmer) in bottom-read mode for fluorescence intensity (emission at 590 nm).
# Keywords: Thyroid-stimulating hormone TSH, TSHR, TSHR agonist, quantitative high throughput screening, qHTS, HTS, probe identification, CNG, cAMP, cyclic nucleotide gated ion channel PubChem
row,SMILES,activation
1,O=C(O)[C@@H]1[C@H](C(=O)O)[C@]2(Cl)C(Cl)=C(Cl)[C@@]1(Cl)C2(Cl)Cl,inactive: -2.25%
2,O=C(O)c1cc(N=Nc2ccc([As](=O)(O)O)cc2)ccc1O,inactive: -58.3%
3,C=CCOC(=O)C1=C(C)OC(N)=C(C(=O)OCC)C12C(=O)N(CC(N)=O)c1ccccc12 (stereo not drawn),45.3% [at 57.1 µM]
